Inconclusive results, whose numbers are uncertain, are shown with a selection of clear calls. Potencies beside an inconclusive call are fits to weak or partial responses and may not hold up. The source made the active and inactive calls. Rule for the calls: active = hit-call score of the fitted dose curve at least 0.9, where 1 is the maximum; inconclusive = response in the unintended direction; inactive = score below 0.9.
Assays:
[1] = target: Bile acid receptor (Homo sapiens) (UniProt Q96RI1); experiment: OT_FXR_FXRSRC1_0480: Odyssey Thera (OT) 8-hour HEK293T Protein-Complementation Assay for Farnesoid X receptor/SRC-1 Co-activator (AID 2283383)
Method in brief: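 Binding of FXR to coactivator SRC-1 was read as fluorescence from a reconstituted split reporter in HEK293T cells, 8 h after chemical addition. Only increases in signal versus DMSO were fit.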

Sequences of proteins named here, by UniProt entry; tags and fusion partners are left off. A change or cut given only in a name is not applied to a line headed by its entry.
UniProt Q96RI1: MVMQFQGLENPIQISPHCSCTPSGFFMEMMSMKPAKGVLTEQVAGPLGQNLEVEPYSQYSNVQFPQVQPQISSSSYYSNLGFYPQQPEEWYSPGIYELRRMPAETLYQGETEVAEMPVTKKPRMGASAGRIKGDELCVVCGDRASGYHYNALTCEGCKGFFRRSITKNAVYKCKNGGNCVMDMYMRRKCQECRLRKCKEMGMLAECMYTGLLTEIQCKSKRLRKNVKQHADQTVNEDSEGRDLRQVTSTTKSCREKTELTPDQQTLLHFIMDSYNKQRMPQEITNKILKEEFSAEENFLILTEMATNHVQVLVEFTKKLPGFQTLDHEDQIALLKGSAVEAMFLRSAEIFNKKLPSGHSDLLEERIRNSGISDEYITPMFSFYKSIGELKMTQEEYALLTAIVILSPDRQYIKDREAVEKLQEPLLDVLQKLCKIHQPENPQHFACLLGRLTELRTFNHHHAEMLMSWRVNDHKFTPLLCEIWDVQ

[2] = target: Bile acid receptor (Homo sapiens) (UniProt Q96RI1); experiment: OT_FXR_FXRSRC1_1440: Odyssey Thera (OT) 24-hour HEK293T Protein-Complementation Assay for Farnesoid X receptor/SRC-1 Co-activator (AID 2283384)
Method in brief: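 Protein-fragment complementation: FXR and SRC-1 fused to reporter fragments that reassemble on interaction, read by fluorescence intensity. Human HEK293T cells measured 24 h post-dose; positive-direction fit versus DMSO.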

**Q.** For `C=CCCCCCCCCCCCC`, which outcome [1] is on record?
**A.** inactive

**Q.** `C[Si]1(C)O[Si](C)(C)O[Si](C)(C)O[Si](C)(C)O1` was tested. Which AC50 [2] did it give?
**A.** inconclusive: 50 µM

**Q.** With `CC(=O)O[C@H]1C[C@@H]2CC[C@@]1(C)C2(C)C` as the compound, how does the AC50 [2] read?
**A.** inconclusive: 50 µM

**Q.** How did the AC50 [1] turn out when `CC(=O)c1ccccc1O` was run?
**A.** inconclusive: 1.38 µM

**Q.** What about the AC50 [2] of the same compound?
**A.** inconclusive: 24.9 µM

**Q.** With `O=C(OCc1ccccc1)c1ccccc1` as the compound, how does the AC50 [2] read?
**A.** inconclusive: 7.3 µM

**Q.** For `CC(=O)OC1CC(C)OC(C)O1` (stereo unspecified), which AC50 [2] is on record?
**A.** inconclusive: 50 µM

**Q.** `CCN(CC)C(=O)c1cccc(C)c1` was tested. Which AC50 [2] did it give?
**A.** inconclusive: 50 µM

**Q.** How did the outcome [1] turn out when `CC1CCC(C(C)C)C(O)C1` (stereo unspecified) was run?
**A.** inactive

**Q.** What about the outcome [2] of the same compound?
**A.** inactive

**Q.** How did the AC50 [2] turn out when `CCCCCCCCCO` was run?
**A.** inconclusive: 2.35 µM

**Q.** `Cc1cc(=O)[nH]c(=S)[nH]1` was tested. Which outcome [2] did it give?
**A.** inactive

**Q.** Which outcome [2] does the source give for `Cc1ccc(C)c(O)c1` here?
**A.** inactive

**Q.** `COc1c(Cl)c(Cl)c(Cl)c(Cl)c1Cl` was tested. Which AC50 [2] did it give?
**A.** inconclusive: 7.19 µM

**Q.** How did the AC50 [1] turn out when `O=CCc1ccccc1` was run?
**A.** active: 30.1 µM

**Q.** What about the AC50 [2] of the same compound?
**A.** inconclusive: 50 µM

**Q.** `COS(=O)(=O)O` was tested. Which AC50 [2] did it give?
**A.** inconclusive: 50 µM

**Q.** For `CCOC(=O)C1CC(=O)C(=C(O)C2CC2)C(=O)C1` (stereo unspecified), which AC50 [2] is on record?
**A.** inconclusive: 50 µM

**Q.** Which AC50 [1] does the source give for `COCCOCCOC` here?
**A.** inconclusive: 50 µM

**Q.** What about the AC50 [2] of the same compound?
**A.** inconclusive: 4.71 µM

**Q.** `OCC1CCCO1` (stereo unspecified) was tested. Which AC50 [2] did it give?
**A.** inconclusive: 50 µM

Reference: PubChem BioAssay (EPA / NIEHS)
